Counter-ions that a name gives are not always drawn. The list shows a part of the results. This data set is noisy: repeats of one test often differ as much as different tests do.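 In a drug-repurposing library screen, luminescence reads luciferase driven by eight TEAD-binding elements, stably integrated into human kidney-derived cells. Compounds scoring over five robust Z scores above the plate mean are called hits.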
Tested on: HEK293A TEAD-LUC reporter
Test: TEAD-luciferase reporter activity (YAP activation), robust Z score vs plate; higher = stronger YAP/TEAD activation
Details: 24 h

| Structure (SMILES) | TEAD-luciferase reporter activity (compound concentration: 200 nM) | TEAD-luciferase reporter activity (compound concentration: 2 uM) | TEAD-luciferase reporter activity (compound concentration: 10 uM) |
| --- | --- | --- | --- |
| O=NN1CCCCC1c1cccnc1 (stereo unspecified) | inactive: -0.493 | inactive: -0.553 | inactive: 2.49 |
| C[C@@H]1N=C(c2ccccc2Cl)c2cc([N+](=O)[O-])ccc2NC1=O | inactive: 2.48 | inactive: -0.597 | inactive: -0.378 |
| CN1C[C@H](C(=O)N(CCO)CCO)CC2c3cccc4[nH]cc(c34)C[C@H]21 (stereo partly specified) | inactive: -0.796 | inactive: -0.619 | inactive: -1.16 |
| CN1C[C@@]2(C(=O)O)C(=O)[C@@](C(=O)O)(C1)[C@@H](c1ccccn1)N(C)[C@H]2c1ccccn1 | inactive: -0.81 | inactive: 0.0727 | inactive: -1.36 |
| CC(=O)N1C[C@@H](CCN2CC=C(c3c[nH]c4cc(Cl)ccc34)CC2)c2ccccc21 | inactive: -0.621 | inactive: -0.714 | active: 7.93 |
| CN1[C@@H]2CC[C@H]1CC(OC(=O)[C@H](CO)c1ccccc1)C2 (stereo partly specified) [Atropine sulfate] | inactive: -1.77 | inactive: 1.76 | inactive: 1.53 |
| CC1OC(OC2C(O)CC(OC3C(O)CC(OC4CCC5(C)C(CC[C@@H]6[C@@H]5CCC5(C)C(C7=CC(=O)OC7)C(O)CC65O)C4)OC3C)OC2C)CC(O)C1O (stereo partly specified) | inactive: 0.25 | inactive: 0.934 | active: 24.8 |
| ClCCN(Cc1ccccc1)Cc1ccccc1 | inactive: -0.103 | inactive: 4.24 | inactive: -1.33 |
| CCC(C)C(C)(COC(N)=O)COC(N)=O (stereo unspecified) | inactive: -1.14 | inactive: -1.74 | inactive: 2.08 |
| CCN(C(C)=O)c1cccc(-c2ccnc3c(C#N)cnn23)c1 | inactive: -2.81 |  | inactive: 0.748 |
| CCN(C(C)=O)c1cccc(-c2ccnc3c(C#N)cnn23)c1 [zaleplon GR] |  | inactive: -1.23 |  |
| CCCC1(CNS(=O)(=O)C(F)(F)F)CCN(S(=O)(=O)c2cc3ccccc3n2S(=O)(=O)c2ccccn2)CC1 | inactive: -1.19 | inactive: -0.73 | inactive: 2.87 |
| O=C1CCC2(CC1)OOC1(O2)C2CC3CC(C2)CC1C3 (stereo unspecified) | inactive: -1.09 | inactive: 0.494 | inactive: -0.773 |
| O=C1NCc2ccccc2CC12CCCCN2Cc1ccncc1 (stereo unspecified) | inactive: -0.131 |  | inactive: 2.67 |
| O=C(OCCN1CCCCC1)C(O)(c1ccccc1)c1ccccc1 | inactive: -0.258 | inactive: -1.54 | inactive: 0.0213 |
| CN(C)CCc1c[nH]c2ccc(O)cc12 | inactive: -0.986 | inactive: -1.05 | inactive: -0.00666 |
| OC1(c2ncccn2)CC2CCC(C1)N2C(c1ccccc1Cl)c1ccccc1Cl (stereo unspecified) | inactive: 0.00727 | inactive: 0.0255 | inactive: 1.01 |
| O=[N+]([O-])c1cc([As](=O)(O)O)ccc1O | inactive: -1.08 | inactive: -0.157 | inactive: 0.186 |
| Cc1ccc(C23CNCC2C3)cc1 (stereo unspecified) [Bicifadine] | inactive: -1.94 | inactive: -2.43 | inactive: 1.72 |
| O=c1c2ccccc2[se]n1CCn1[se]c2ccccc2c1=O [Ethaselen-1] | inactive: 0.649 | inactive: -0.116 | inactive: -0.445 |
| CCC(C)=O [Methyl Ethyl Ketone] |  | inactive: -0.892 | inactive: -0.171 |
| O=C(O)C(Cl)Cl | inactive: 0.646 | inactive: 0.0263 | inactive: 1.1 |
| CC(=O)NCC1CC(c2ccc(C3=CCNCC3)cc2)=NO1 (stereo unspecified) | inactive: -0.469 | inactive: 0.47 | inactive: 2.21 |
| c1cnc2c(c1)CNC2 | inactive: -0.142 | inactive: 0.823 | inactive: -0.244 |
| CC(C)[C@@H](CN1CC[C@@](C)(c2cccc(O)c2)[C@@H](C)C1)NC(=O)[C@H]1Cc2ccc(O)cc2CN1 [JDTic dihydrochloride] | inactive: -1.17 | inactive: 1.69 | active: 7.87 |
| CCN(CC)C(=O)c1ccc(C2=CC3(CCNCC3)Oc3cccc(O)c32)cc1 | inactive: 0.414 | inactive: -1.32 | inactive: -2.49 |
| CC(Cc1ccccc1)NCCC(c1ccccc1)c1ccccc1 (stereo unspecified) | inactive: -1.16 | inactive: -0.412 | inactive: 0.698 |

| Structure (SMILES) | TEAD-luciferase reporter activity (compound concentration: 200 nM) | TEAD-luciferase reporter activity (compound concentration: 2 uM) | TEAD-luciferase reporter activity (compound concentration: 10 uM) |
| --- | --- | --- | --- |
| Cc1ccc(S(=O)(=O)N2CCCC2C(=O)N2CCC(N3CCCC3=O)CC2)cc1 (stereo unspecified) | inactive: -0.775 |  | inactive: 0.907 |
| C[C@]12CC[C@H]3[C@@H](CCC4=CC(=O)CC[C@@]43C)[C@@H]1CC[C@@H]2O[C@@H]1OC(CO)[C@@H](O)[C@H](O)C1O (stereo partly specified) [Testosterone-Glucoside] | inactive: -1.22 | inactive: -2.05 | inactive: -0.949 |
| CN[C@]1(c2ccccc2)CC[C@]2(CC1)OCCc1c3cc(F)ccc3[nH]c12 [lexanopadol] | inactive: -0.32 | inactive: -0.482 | inactive: -0.465 |
| C[N+]1(CCC(C(N)=O)(c2ccccc2)c2ccccc2)CCCCC1 | inactive: -0.878 | inactive: -1.91 | inactive: -2.31 |
| C/C(=C\c1csc(C)n1)[C@@H]1C[C@@H]2O[C@]2(C)CCC[C@H](C)[C@H](O)[C@@H](C)C(=O)C(C)(C)[C@@H](O)CC(=O)O1 [Patupilone] | inactive: -0.465 | inactive: -0.901 | inactive: -0.995 |
| Cc1cc([C@@H]2CCCN2C)on1 | inactive: 0.97 | inactive: -1.51 | inactive: -1.22 |
| CC(C)C[C@H](NC(=O)[C@H](Cc1ccccc1)NC(=O)CNC(=O)[C@@H](C)NC(=O)[C@@H](N)Cc1ccc(O)cc1)C(=O)O [[D-Ala2]leucine-enkephalin] |  | inactive: -1.13 | inactive: 1.24 |
| CCCN1C[C@@H](C)[C@](OC(C)=O)(c2ccccc2)C[C@@H]1C | inactive: -0.879 | inactive: -0.288 | inactive: 1.39 |
| Clc1cncc(C2CN3CCC2CC3)n1 (stereo unspecified) | active: 5.76 | inactive: 1.16 | active: 5.09 |
| CC(=O)N(C)c1cc(-c2ccnc3c(C(=O)c4cccs4)cnn23)ccc1F [lorediplon] | inactive: 0.501 | inactive: -0.651 | inactive: -0.635 |
| COc1cc(CCNC(C)Cc2cc(OC)ccc2C#Cc2ccccc2)cc(OC)c1 (stereo unspecified) | inactive: 1.93 | inactive: 0.408 | inactive: 1.81 |
| CN1c2ccc(Cl)cc2C(c2ccccc2Cl)=NCC1CO (stereo unspecified) | inactive: 0.343 | inactive: -2.32 | inactive: 0.383 |
| FC(F)(F)c1ccc(C2=CCNCC2)cc1 | inactive: 0.765 | inactive: -1.78 | inactive: -1.42 |
| Cc1nc(-c2ccc(-c3ccc(C(=O)N4CCc5cc6c(cc54)C4(CCN(C)CC4)CO6)cc3)c(C)c2)no1 | inactive: -0.857 | inactive: -1.22 | inactive: -0.453 |
| C=C[C@@H]1C2=CCOC(=O)C2=CO[C@H]1O[C@@H]1O[C@H](CO)[C@@H](O)[C@H](O)[C@H]1O | inactive: -0.531 | inactive: 0.845 | inactive: 0.405 |
| CC(=O)O[C@H]1C[C@H](O[C@H]2[C@@H](O)C[C@H](O[C@H]3[C@@H](O)C[C@H](O[C@H]4CC[C@@]5(C)[C@H](CC[C@@H]6[C@@H]5C[C@@H](O)[C@]5(C)[C@@H](C7=CC(=O)OC7)CC[C@]65O)C4)O[C@@H]3C)O[C@@H]2C)O[C@H](C)[C@H]1O[C@@H]1O[C@H](CO)[C@@H](O)[C@H](O)[C@H]1O | active: 16.9 | inactive: -3.21 | active: 16.4 |
| COP(=O)(OC)N1C[C@H]2C[C@H](C1)c1cccc(=O)n1C2 [Cytisin amidophosphate] | inactive: -1.41 | inactive: -0.182 | inactive: 0.291 |
| CNCC/C=C/c1cncnc1 | inactive: -0.649 | inactive: -0.674 | inactive: 0.112 |
| CC(=O)O[C@H]1CCC2C3CCC4=CC(=O)CC[C@]4(C)C3CC[C@@]21C (stereo partly specified) [Testosterone, Acetate derivative] | inactive: 0.253 | inactive: -1.63 | inactive: 1.03 |
| Cc1ccc(C(=O)N2CCCC2C(=O)N2CCC(N3CCCC3=O)CC2)cc1 (stereo unspecified) | inactive: -0.00389 |  | inactive: 3 |
| COc1cc2c(cc1F)C(c1ccccc1Cl)=NC1=C(C)NNC1=N2 | inactive: -1.36 | inactive: -1.13 | inactive: 0.247 |
| CCN1CCC2(CC1)COc1cc3c(cc12)N(C(=O)c1ccc(-c2ccc(-c4nnc(C)o4)cc2C)cc1)CC3 | inactive: -0.506 | inactive: 0.848 | inactive: 2.8 |
| CN1[C@@H]2CC(OC(=O)C(O)(CO)c3ccccc3)C[C@H]1[C@@H]1O[C@H]12 (stereo partly specified) | inactive: 1.93 | inactive: -1.06 | inactive: 0.225 |
| CC(O)C(C)OC(=O)[C@@H]1C[C@@H]2c3cccc4c3c(cn4C(C)C)C[C@H]2N(C)C1 (stereo partly specified) | inactive: 0.381 | inactive: -1.03 | inactive: 1.68 |
| COC1=C(OC)C(=O)/C(=C2/C(C)=C(C(=O)O)NC(c3ccc4c(n3)C(=O)C(N)=C(OC)C4=O)=C2N)C=C1 [Streptonigrin from streptomyces flocculus] |  | inactive: -1.92 |  |
| COC1=C(OC)C(=O)/C(=C2/C(C)=C(C(=O)O)NC(c3ccc4c(n3)C(=O)C(N)=C(OC)C4=O)=C2N)C=C1 [Streptonigrin from Streptomyces flocculus] | inactive: -1.36 |  | inactive: -2.84 |
| O=C1CN=C(C2=CCCCC2)c2cc(Cl)ccc2N1 | inactive: -1.03 | inactive: -1.3 | inactive: 0.837 |

No new results follow: entries from further up.

| Structure (SMILES) | TEAD-luciferase reporter activity (compound concentration: 200 nM) | TEAD-luciferase reporter activity (compound concentration: 2 uM) | TEAD-luciferase reporter activity (compound concentration: 10 uM) |
| --- | --- | --- | --- |
| C[C@]12CC[C@H]3[C@@H](CCC4=CC(=O)CC[C@@]43C)[C@@H]1CC[C@@H]2O[C@@H]1OC(CO)[C@@H](O)[C@H](O)C1O (stereo partly specified) [Testosterone-Glucoside] | inactive: -1.22 | inactive: -2.05 | inactive: -0.949 |
| CN[C@]1(c2ccccc2)CC[C@]2(CC1)OCCc1c3cc(F)ccc3[nH]c12 [lexanopadol] | inactive: -0.32 | inactive: -0.482 | inactive: -0.465 |

From the supplement of paper PMC10735217
